These results are taken from the supplement of paper PMC8728848.

Test in all cases: glycan array binding signal (z-score within array); higher = stronger binding
Details in all cases: glycan notation: IUPAC condensed, linker removed

The target in assay [1] is Gal(b1-4)GlcNAc(b1-3)Gal(b1-4)GlcNAc(b1-6)[Gal(b1-3)]GalNAc. The essentials: (§1)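 Glycan array data came from 3228 arrays in the Consortium for Functional Glycomics database, and only arrays with an available protein sequence were kept. Glycan names were put into IUPAC-condensed notation, and columns mapping to the same glycan were averaged. The binding signal is a within-array Z-score, averaged across arrays of one protein sequence run at different concentrations or buffers and across linkers. A negative Z-score can be read as non-binding.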

Assay [2] concerns the target Gal(b1-4)GlcNAc(b1-3)Gal(b1-4)[Fuc(a1-3)]GlcNAc(b1-3)Gal(b1-4)[Fuc(a1-3)]GlcNAc. The essentials: as §1
For assay [3], the target named is Gal(b1-4)GlcNAc(b1-3)GalNAc. Summed up:
as §1

The target of assay [4] is Gal(b1-4)GlcNAc(b1-3)[Fuc(a1-3)GlcNAc(b1-6)]Gal(b1-4)Glc. Summed up:
as §1

In assay [5] the target is Gal(b1-4)GlcNAc(b1-3)[Gal(b1-4)GlcNAc(b1-6)]Gal(b1-4)GlcNAc. The essentials:
as §1

Assay [6] deals with Gal(b1-4)GlcNAc(b1-3)[GlcNAc(b1-6)]Gal(b1-4)GlcNAc. The essentials: as §1
Assay [7] has as its target Gal(b1-4)GlcNAc(b1-6)Gal(b1-4)GlcNAc. Summed up: as §1
Assay [8] has as its target Gal(b1-4)GlcNAc(b1-6)GalNAc. The essentials:
as §1

For assay [9], the target named is Gal(b1-4)GlcNAc(b1-6)[Gal(b1-3)]GalNAc. The essentials: as §1
Assay [10] has as its target Gal(b1-4)GlcNAc(b1-6)[Gal(b1-4)GlcNAc(b1-3)]GalNAc. The essentials:
as §1

In another assay the target is Gal(b1-4)GlcNAc6P. Summed up: as §1
The target in a further assay is Gal(b1-6)Gal. The essentials:
as §1

In another assay the target is Gal3S(b1-3)GalNAc. Summed up:
as §1

The target of the next assay is Gal3S(b1-3)GlcNAc. Summed up:
as §1

Assay [11] concerns the target Gal3S(b1-3)[Fuc(a1-4)]GlcNAc. Summed up: as §1

Some of the results follow.

B1: Awp1 (Candida glabrata) (protein)
chain: MSLITIFAFLIKATLVLSLDILTPTTLTGDQTFNEDVSVVSSLTLNDGSQYLFNNLLQIAPSSASVTANALAAVSVFTFSLPPSSSLSNSGTLIISNSNTGPSTEQHIVITPNVMANTGTITLSLAHTNTDSSSTLIIDPVTFYNTGTINYESIGSETNDPSLTGNILSIGSSGRTLQNLGTINLNAANSYYLLGTITENSGSINVQKGFLYVNALDFIGNTINLSTTTALAFISPVSQVVRVRGVFFGNIIASVGSSGTFSYNTQTGILTVTTNGVYSYDIGCGYNPALMSGQQETLSFQGNPYDTFLVLVNQPIPSDLTCAAVSSSITPSSSVEPSSSVVPSSSVEPSSSVEPSSSVEPSSSVEPSSSVEPSSSVEPSSSVEPSSSVEPSSSVEPSSSVEPSSSVEPSSSVEPSSSVEPSSSVEPSSSVEPSSSVEPSSSVEPSSSVEPSSSVEPSSLIVPSSSVEPSSSVLPSSSVVPSSSVEPSTPPIPSSSVEPSSSVVPSSPAVPSSSVEPSTPPIPSSSVVSASVFDTSSTLPSSPSVPPSSVSPSTISTPSSSAAPSSFCPTCVSSGTPPAPSSSAIVPTSSAGGGNGGDNREPGAAGQPGAAGQPGAAGQPGAAGQPGAAGQPGAAGQPGAAGQPGAAGQPGAAGQPGAAGQPGAGFGVGSEQPTPGAGAGSGSADGNQSGTGSGTGNGQQGSGQAGSGQAGSGQEGSGQAGSGQAGSGQAGSGQAGSGQAGLDNTASGQSEGGQASAMDGDQSGRDGQSNSGSLLQPNAQQGTGSGTGSDIGADQASGESPGQIGDAQPGSGTDQSSGRHSLAAEARTSQSHSLAADARTRSTTRQTSVIAPDTAPGTASGTAPGTAPGTAVVTTFHGCGTVNHKGMINILLALALLVLL
With B1, the “glycan array binding signal (z-score)” value in assay [1] was 0.7; in assay [2], 0.067; in [3], 0.56; in [4], 1.99; in assay [5] it was -0.342; in [6] it was -0.821. For the same molecule, the “glycan array binding signal (z-score)” value in assay [7] is -0.366; in [8] it was -0.061; in [9], 0.353; in [10] it was -0.215; with Gal(b1-4)GlcNAc6P, 0.917; in the assay with Gal(b1-6)Gal, -0.495. The “glycan array binding signal (z-score)” value with Gal3S(b1-3)GalNAc is -0.952; with Gal3S(b1-3)GlcNAc, 0.654; in assay [11], 0.375.
